According to US20240382448A1, “METHODS FOR TREATING CORONAVIRUS INFECTION” (priority 2021, published 2024):
Some results were stated once for a whole list of compounds, not compound by compound.

System: SARS-CoV2 virus (Virus ID: USA_WA1/2020)
Assay type: cell-based
Settings: Vero 76, Caco-2 or Calu-3 cells; summary of FIG. 2; about 8 or greater

Structure (SMILES): O=C1c2c(O)cc(O)cc2O[C@H](c2ccc(O)c(O)c2)[C@H]1O [(+)-taxifolin]
- SI or SI50 (CC50 divided by EC50 or CC50 divided by EC90): ≥ 8

Structure (SMILES): C[C@H]1[C@H](OC(=O)CCC(=O)O)O[C@@H]2O[C@@]3(C)CC[C@H]4[C@H](C)CC[C@@H]1[C@@]24OO3 [Artesunate]
- SI or SI50 (CC50 divided by EC50 or CC50 divided by EC90): ≥ 8

Structure (SMILES): COc1cc(-c2oc3cc(O)cc(O)c3c(=O)c2O)ccc1O [Isorhamnetin]
- SI or SI50 (CC50 divided by EC50 or CC50 divided by EC90): ≥ 8

Structure (SMILES): O[C@H]1[C@H]2c3cc4c(cc3CN3CCC(=C[C@@H]1O)[C@H]23)OCO4 [lycorine]
- SI or SI50 (CC50 divided by EC50 or CC50 divided by EC90): ≥ 8
